Reference: paper PMC2744924
Where two headings read alike, the source gives them in different places. These are yes or no findings as the source states them, for the method shown. For some assays here: Binding seen in cells or lysates may run through a third protein. Some binding calls cover weakened binding; strength is not graded here. For some assays here: Tags and fused reporters may be left off the sequences shown.

Chains of the proteins cited; added tags and fusions are not shown.
UniProt Q8IZP0: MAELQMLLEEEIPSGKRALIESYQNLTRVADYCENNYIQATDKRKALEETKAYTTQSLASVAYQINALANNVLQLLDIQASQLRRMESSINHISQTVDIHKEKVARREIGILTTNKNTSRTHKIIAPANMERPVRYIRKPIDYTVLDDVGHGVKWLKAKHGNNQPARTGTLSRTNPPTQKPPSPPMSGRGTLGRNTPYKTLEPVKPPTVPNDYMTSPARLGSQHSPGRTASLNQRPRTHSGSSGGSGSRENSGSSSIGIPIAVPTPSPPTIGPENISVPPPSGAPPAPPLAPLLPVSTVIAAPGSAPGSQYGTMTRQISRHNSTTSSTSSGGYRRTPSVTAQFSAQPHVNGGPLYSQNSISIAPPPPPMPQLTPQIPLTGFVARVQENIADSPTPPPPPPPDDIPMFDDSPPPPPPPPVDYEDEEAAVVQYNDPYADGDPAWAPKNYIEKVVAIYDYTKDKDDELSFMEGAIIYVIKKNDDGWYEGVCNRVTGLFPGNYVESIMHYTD
UniProt P60953: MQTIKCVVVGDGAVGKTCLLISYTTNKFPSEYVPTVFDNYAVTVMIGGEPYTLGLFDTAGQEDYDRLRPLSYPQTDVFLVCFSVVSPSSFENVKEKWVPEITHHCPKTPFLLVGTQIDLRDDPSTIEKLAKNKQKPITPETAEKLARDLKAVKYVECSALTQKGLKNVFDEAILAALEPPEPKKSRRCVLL
UniProt O00401: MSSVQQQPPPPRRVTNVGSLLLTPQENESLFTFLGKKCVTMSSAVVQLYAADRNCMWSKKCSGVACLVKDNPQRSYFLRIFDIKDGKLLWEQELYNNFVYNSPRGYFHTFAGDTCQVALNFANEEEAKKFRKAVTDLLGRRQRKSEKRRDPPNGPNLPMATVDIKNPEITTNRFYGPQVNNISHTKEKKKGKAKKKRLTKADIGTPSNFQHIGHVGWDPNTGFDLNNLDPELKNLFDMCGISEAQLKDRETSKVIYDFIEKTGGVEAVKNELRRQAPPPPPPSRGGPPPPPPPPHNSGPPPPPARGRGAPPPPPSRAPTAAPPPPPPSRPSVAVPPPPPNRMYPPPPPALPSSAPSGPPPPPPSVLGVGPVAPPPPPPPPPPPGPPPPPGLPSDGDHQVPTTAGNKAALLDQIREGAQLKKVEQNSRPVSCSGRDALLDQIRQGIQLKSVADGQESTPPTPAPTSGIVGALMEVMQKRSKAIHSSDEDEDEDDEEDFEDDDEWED
UniProt Q9Y6W5: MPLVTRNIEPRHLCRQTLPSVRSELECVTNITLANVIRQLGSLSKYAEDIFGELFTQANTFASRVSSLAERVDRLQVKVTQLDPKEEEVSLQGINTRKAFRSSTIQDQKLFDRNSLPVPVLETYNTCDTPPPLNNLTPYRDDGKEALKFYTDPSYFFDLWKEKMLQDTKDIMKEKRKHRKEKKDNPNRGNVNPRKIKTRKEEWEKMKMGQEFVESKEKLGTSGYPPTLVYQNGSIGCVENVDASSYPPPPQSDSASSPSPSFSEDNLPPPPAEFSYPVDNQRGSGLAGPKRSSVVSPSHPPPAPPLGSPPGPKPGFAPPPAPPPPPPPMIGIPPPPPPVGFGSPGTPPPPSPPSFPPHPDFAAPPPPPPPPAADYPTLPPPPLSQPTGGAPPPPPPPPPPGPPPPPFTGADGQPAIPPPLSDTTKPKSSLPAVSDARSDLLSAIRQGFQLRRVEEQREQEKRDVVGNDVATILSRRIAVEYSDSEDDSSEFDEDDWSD
UniProt O43516: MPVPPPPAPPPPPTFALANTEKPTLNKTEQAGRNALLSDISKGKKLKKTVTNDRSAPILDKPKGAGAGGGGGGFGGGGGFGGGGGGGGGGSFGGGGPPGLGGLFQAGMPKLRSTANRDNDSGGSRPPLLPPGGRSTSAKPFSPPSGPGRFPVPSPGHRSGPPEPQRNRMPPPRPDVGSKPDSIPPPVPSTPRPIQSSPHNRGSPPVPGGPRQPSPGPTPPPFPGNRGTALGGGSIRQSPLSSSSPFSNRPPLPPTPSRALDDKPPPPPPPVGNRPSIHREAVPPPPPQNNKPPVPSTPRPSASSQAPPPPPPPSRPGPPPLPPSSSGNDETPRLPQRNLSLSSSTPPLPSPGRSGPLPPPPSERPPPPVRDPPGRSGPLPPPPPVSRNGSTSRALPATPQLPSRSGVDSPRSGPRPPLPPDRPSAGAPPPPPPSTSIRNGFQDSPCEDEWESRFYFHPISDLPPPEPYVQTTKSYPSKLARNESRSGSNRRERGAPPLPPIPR

Columns and labels:
[1] = molecular target: T1, SH3 domain of mammalian (human) TOCA-1 fused to GST (human) (UniProt Q5T0N5); test: pull-down; GST-SH3 fusion proteins immobilised (5-15 ug), incubated with total HeLa cell lysates (1-2 mg); bound proteins by immunoblot; only the target purified
T1 sequence: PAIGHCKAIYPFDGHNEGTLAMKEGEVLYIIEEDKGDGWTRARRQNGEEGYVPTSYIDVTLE

TOCA-1-HA (human) = molecular target: T2, TOCA-1-HA (human) (UniProt Q5T0N5); test: co-IP; lysates of transfected HeLa cells; IP with anti-HA (TOCA-1-HA) or anti-ABI1 (ABI1-HA) antibody; immunoblot
T2 sequence: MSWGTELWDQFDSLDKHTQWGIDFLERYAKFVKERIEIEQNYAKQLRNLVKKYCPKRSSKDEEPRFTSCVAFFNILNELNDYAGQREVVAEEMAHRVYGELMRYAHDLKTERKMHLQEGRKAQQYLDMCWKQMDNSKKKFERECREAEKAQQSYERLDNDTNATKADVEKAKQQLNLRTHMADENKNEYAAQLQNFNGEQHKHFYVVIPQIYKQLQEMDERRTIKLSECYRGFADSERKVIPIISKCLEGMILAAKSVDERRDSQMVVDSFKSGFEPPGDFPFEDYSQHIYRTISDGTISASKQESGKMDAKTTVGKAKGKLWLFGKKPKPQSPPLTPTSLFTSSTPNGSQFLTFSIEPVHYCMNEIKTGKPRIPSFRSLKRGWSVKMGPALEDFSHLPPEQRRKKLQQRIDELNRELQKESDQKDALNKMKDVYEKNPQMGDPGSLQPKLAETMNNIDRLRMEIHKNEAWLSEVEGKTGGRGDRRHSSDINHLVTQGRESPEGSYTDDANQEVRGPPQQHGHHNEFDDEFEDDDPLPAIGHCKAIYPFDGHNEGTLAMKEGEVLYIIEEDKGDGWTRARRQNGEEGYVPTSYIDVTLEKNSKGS

[2] = molecular target: T1, SH3 domain of mammalian (human) TOCA-1 fused to GST (human); test: pull-down; purified N-WASP incubated with SH3-GST fusion proteins (10 ug); bound N-WASP by immunoblot; both purified
[3] = molecular target: ABI-1, endogenous in HeLa lysate (human (endogenous in HeLa)) (UniProt Q8IZP0); test: co-IP; endogenous proteins; total HeLa lysates (2 mg) immunoprecipitated with anti-ABI-1 or control unrelated IgG (WAVE2 also told in TOCA-1 immunoprecipitates); immunoblot
[4] = molecular target: T3, SH3 domain of C. elegans CeTOCA-2 fused to GST (C. elegans) (UniProt Q9XUS7); test: pull-down; GST-SH3 fusion proteins immobilised (5-15 ug), incubated with total HeLa cell lysates (1-2 mg); bound proteins by immunoblot; only the target purified
T3 sequence: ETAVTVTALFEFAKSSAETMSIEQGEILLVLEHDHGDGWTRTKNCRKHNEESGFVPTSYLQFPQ

[5] = molecular target: T4, SH3 domain of C. elegans CeTOCA-1 fused to GST (C. elegans) (UniProt Q19253); test: as above
T4 sequence: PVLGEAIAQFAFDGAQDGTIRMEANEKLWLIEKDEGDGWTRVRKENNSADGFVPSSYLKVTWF

[6] = molecular target: ABI-1, endogenous in HeLa lysate (human (endogenous in HeLa)) (UniProt Q8IZP0); test: co-IP; endogenous proteins; total HeLa lysates (2 mg) immunoprecipitated with anti-ABI-1 or control unrelated IgG (WAVE2 also told in TOCA-1 immunoprecipitates); immunoblot; remark: listed apart in the source
GST-Cdc42 = GST-Cdc42 (UniProt P60953); test: pull-down; immobilised GTP-gamma-S-loaded GST-Cdc42 (10 ug) incubated with lysates (1 mg) of HeLa cells, untransfected or transfected; immunoblot; only the target purified

For “ABI-1, endogenous in HeLa lysate (from UniProt Q8IZP0 1-508)”, the binding [1] was “binds”.

In the case of ABI-1-GFP (from UniProt Q8IZP0 1-508), the binding (TOCA-1-HA (human)) is reported as “binds”.

“Purified N-WASP (from UniProt O00401 1-505)” was tested, and the binding [2] was “binds”.

For “WAVE2, endogenous in HeLa lysate (from UniProt Q9Y6W5 1-498)”, the binding [3] was “binds”.

“WIP, endogenous in HeLa lysate (from UniProt O43516 1-503)” was tested, and the binding [1] was “binds”.

“mammalian N-WASP, endogenous in HeLa lysate (from UniProt O00401 1-505)” was tested, and the binding [4] was “binds”, the binding [1] was “binds” and the binding [5] was “binds”.

B1: TOCA-1, endogenous in HeLa lysate (protein, UniProt Q5T0N5 1-605)
chain: T2 sequence
In the case of B1, the binding [6] is reported as “binds” and the binding (GST-Cdc42) is reported as “binds”.

B2: TOCA-1-HA (protein, UniProt Q5T0N5 1-605)
chain: T2 sequence
For B2, the binding (GST-Cdc42) was “binds”.
